No constants are given. Whether binding was seen depends on the method and setting.
Target: mouse lactate dehydrogenase D (mLDHD), N-terminal truncated, residues 22-484 (mouse) (UniProt Q7TNG8)
Experiment: SEC; purified mLDHD on Superdex 200 10/300; storage buffer 50 mM Tris-HCl pH 7.4, 200 mM NaCl, 1 mM EDTA; both purified

binding: no binding
B1: mouse lactate dehydrogenase D (mLDHD), N-terminal truncated, residues 22-484 (enzyme, UniProt Q7TNG8 22-484)
chain: GSQGGLSQDFVEALKAVVGSPHVSTASAVREQHGHDESMHRCQPPDAVVWPQNVDQVSRVASLCYNQGVPIIPFGTGTGVEGGVCAVQGGVCINLTHMDQITELNTEDFSVVVEPGVTRKALNTHLRDSGLWFPVDPGADASLCGMAATGASGTNAVRYGTMRDNVINLEVVLPDGRLLHTAGRGRHYRKSAAGYNLTGLFVGSEGTLGIITSTTLRLHPAPEATVAATCAFPSVQAAVDSTVQILQAAVPVARIEFLDDVMMDACNRHSKLNCPVAPTLFLEFHGSQQTLAEQLQRTEAITQDNGGSHFSWAKEAEKRNELWAARHNAWYAALALSPGSKAYSTDVCVPISRLPEILVETKEEIKASKLTGAIVGHVGDGNFHCILLVDPDDAEEQRRVKAFAENLGRRALALGGTCTGEHGIGLGKRQLLQEEVGPVGVETMRQLKNTLDPRGLMNPGKVL
